Measurements from patent US20250163167A1.
Results are given in words; binding and its absence hold for the method and conditions named. Some binding calls cover weakened binding; strength is not graded here.

Protein sequences, listed by entry. Tags and fused reporters are not part of them. Lines headed by an entry give the natural chain unless they say otherwise; changes in a name come on top.
UniProt Q08334: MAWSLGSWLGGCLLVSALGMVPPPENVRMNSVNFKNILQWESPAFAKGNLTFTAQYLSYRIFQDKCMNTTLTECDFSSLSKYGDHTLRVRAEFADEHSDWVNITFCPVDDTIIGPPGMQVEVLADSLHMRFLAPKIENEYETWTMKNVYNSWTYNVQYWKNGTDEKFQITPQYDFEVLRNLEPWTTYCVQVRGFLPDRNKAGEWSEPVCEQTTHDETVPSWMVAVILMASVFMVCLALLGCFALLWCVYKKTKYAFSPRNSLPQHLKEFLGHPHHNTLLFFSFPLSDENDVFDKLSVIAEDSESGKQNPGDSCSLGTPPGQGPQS

Molecular target: hIL10Rb ECD antigen (human) (UniProt Q08334)
Assay: periplasmic extract ELISA (PE-ELISA) of phage clones

| binding | Binder |
| --- | --- |
| binds | hIL10Rb VHH-4 (VHH) VHH: QVQLQESGGGSIQAGGSLRLSCAASRYLYSIDYMAWFRQSPGKEREPVAVIYTASGATFYPDSVKGRFTISQDNAKMTVYLQMNSLKSEDTAMYYCAAVRKTDSYLFDAQSFTYWGQGTQVTVSS |
| binds | hIL10Rb VHH-6 (VHH) VHH: QVQLQESGGGSIQAGGSLTLSCAASRDLYSTNYVAWFRQSPGKEREAVAVIYTASGATLYSDSVKGRFTISQDNAKMTVYLQMNSLKSEDTAMYYCAAVRKTGHYLFDAQSFTYWGQGTQVTVSS |
